Results deposited as PubChem BioAssay AID493246 (Drosophila RNAi Screening Center, 2011)
The screen tested about 21,000 reagents; below is a random part of those that have a named target and a result. Of all reagents, 429 (2%) were called active. 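Values are raw and not normalised between plates; calls rest on per-plate z-scores that were not deposited.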 The numbers tell different reagents against one gene apart. Reagent sequences are not shown. Not stated in the record: the amount of reagent, the time to read-out.

Assay: 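Identify essential fly genes by loss of cell viability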 (primary screen)
System: Drosophila Kc and S2R+ cells
Reagents: long dsRNA against Drosophila genes
Read-out: 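Raw, unnormalised count of remaining cells in each well; per-plate z-scores of cell number underlie the calls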
Reading the numbers: Kc cell number and S2R+ cell number: higher = more cells remaining
Active means: 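Counted as a hit if cell number falls by a z-score of at least 3 within its plate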

{"gene": "Cp18", "reagent": 1, "Kc cell number, rep 1": 1.29e6, "Kc cell number, rep 2": 1.27e6, "S2R+ cell number, rep 1": 1.12e6, "S2R+ cell number, rep 2": 1.17e6, "Call": "inactive"}
{"gene": "CG3517", "reagent": 1, "Kc cell number, rep 1": 1.19e6, "Kc cell number, rep 2": 1.26e6, "S2R+ cell number, rep 1": 1.05e6, "S2R+ cell number, rep 2": 1.12e6, "Call": "inactive"}
{"gene": "CG2278", "reagent": 1, "Kc cell number, rep 1": 1.51e6, "Kc cell number, rep 2": 1.46e6, "S2R+ cell number, rep 1": 1.01e6, "S2R+ cell number, rep 2": 1.12e6, "Call": "inactive"}
{"gene": "drl", "reagent": 1, "Kc cell number, rep 1": 1.34e6, "Kc cell number, rep 2": 1.40e6, "S2R+ cell number, rep 1": 1.29e6, "S2R+ cell number, rep 2": 1.33e6, "Call": "inactive"}
{"gene": "Marc", "reagent": 1, "Kc cell number, rep 1": 1.75e6, "Kc cell number, rep 2": 1.74e6, "S2R+ cell number, rep 1": 1.38e6, "S2R+ cell number, rep 2": 1.57e6, "Call": "inactive"}
{"gene": "CG1958", "reagent": 1, "Kc cell number, rep 1": 1.49e6, "Kc cell number, rep 2": 1.49e6, "S2R+ cell number, rep 1": 1.10e6, "S2R+ cell number, rep 2": 1.13e6, "Call": "inactive"}
{"gene": "ClpX", "reagent": 1, "Kc cell number, rep 1": 1.74e6, "Kc cell number, rep 2": 1.84e6, "S2R+ cell number, rep 1": 1.33e6, "S2R+ cell number, rep 2": 1.33e6, "Call": "inactive"}
{"gene": "ND-MWFE", "reagent": 1, "Kc cell number, rep 1": 1.80e6, "Kc cell number, rep 2": 1.85e6, "S2R+ cell number, rep 1": 1.20e6, "S2R+ cell number, rep 2": 1.38e6, "Call": "inactive"}
{"gene": "CG10588", "reagent": 1, "Kc cell number, rep 1": 1.36e6, "Kc cell number, rep 2": 1.56e6, "S2R+ cell number, rep 1": 1.30e6, "S2R+ cell number, rep 2": 1.38e6, "Call": "inactive"}
{"gene": "CG5708", "reagent": 1, "Kc cell number, rep 1": 1.50e6, "Kc cell number, rep 2": 1.57e6, "S2R+ cell number, rep 1": 1.15e6, "S2R+ cell number, rep 2": 1.30e6, "Call": "inactive"}
{"gene": "CG7164", "reagent": 1, "Kc cell number, rep 1": 1.71e6, "Kc cell number, rep 2": 1.73e6, "S2R+ cell number, rep 1": 1.16e6, "S2R+ cell number, rep 2": 1.27e6, "Call": "inactive"}
{"gene": "TfIIEalpha", "reagent": 1, "Kc cell number, rep 1": 1.35e6, "Kc cell number, rep 2": 1.48e6, "S2R+ cell number, rep 1": 1.25e6, "S2R+ cell number, rep 2": 1.20e6, "Call": "inactive"}
{"gene": "CG12448", "reagent": 1, "Kc cell number, rep 1": 1.47e6, "Kc cell number, rep 2": 1.58e6, "S2R+ cell number, rep 1": 1.27e6, "S2R+ cell number, rep 2": 1.41e6, "Call": "inactive"}
{"gene": "CG32204", "reagent": 1, "Kc cell number, rep 1": 1.64e6, "Kc cell number, rep 2": 1.61e6, "S2R+ cell number, rep 1": 9.70e5, "S2R+ cell number, rep 2": 1.18e6, "Call": "inactive"}
{"gene": "CG8187", "reagent": 1, "Kc cell number, rep 1": 1.38e6, "Kc cell number, rep 2": 1.41e6, "S2R+ cell number, rep 1": 1.04e6, "S2R+ cell number, rep 2": 1.08e6, "Call": "inactive"}
{"gene": "Pi3K21B", "reagent": 1, "Kc cell number, rep 1": 1.39e6, "Kc cell number, rep 2": 1.42e6, "S2R+ cell number, rep 1": 5.40e5, "S2R+ cell number, rep 2": 5.62e5, "Call": "inactive"}
{"gene": "CG32148", "reagent": 1, "Kc cell number, rep 1": 1.43e6, "Kc cell number, rep 2": 1.54e6, "S2R+ cell number, rep 1": 1.10e6, "S2R+ cell number, rep 2": 1.24e6, "Call": "inactive"}
{"gene": "CG11882", "reagent": 1, "Kc cell number, rep 1": 1.43e6, "Kc cell number, rep 2": 1.45e6, "S2R+ cell number, rep 1": 9.87e5, "S2R+ cell number, rep 2": 1.15e6, "Call": "inactive"}
{"gene": "CtBP", "reagent": 1, "Kc cell number, rep 1": 1.64e6, "Kc cell number, rep 2": 1.77e6, "S2R+ cell number, rep 1": 1.06e6, "S2R+ cell number, rep 2": 1.13e6, "Call": "inactive"}
{"gene": "put", "reagent": 1, "Kc cell number, rep 1": 1.45e6, "Kc cell number, rep 2": 1.50e6, "S2R+ cell number, rep 1": 1.19e6, "S2R+ cell number, rep 2": 1.26e6, "Call": "inactive"}
{"gene": "CG11269", "reagent": 1, "Kc cell number, rep 1": 1.59e6, "Kc cell number, rep 2": 1.73e6, "S2R+ cell number, rep 1": 1.37e6, "S2R+ cell number, rep 2": 4.13e5, "Call": "inactive"}
{"gene": "DIP-zeta", "reagent": 1, "Kc cell number, rep 1": 1.58e6, "Kc cell number, rep 2": 1.63e6, "S2R+ cell number, rep 1": 1.16e6, "S2R+ cell number, rep 2": 1.31e6, "Call": "inactive"}
{"gene": "DIP-zeta", "reagent": 2, "Kc cell number, rep 1": 1.52e6, "Kc cell number, rep 2": 1.57e6, "S2R+ cell number, rep 1": 1.20e6, "S2R+ cell number, rep 2": 1.28e6, "Call": "inactive"}
{"gene": "DIP-zeta", "reagent": 3, "Kc cell number, rep 1": 1.46e6, "Kc cell number, rep 2": 1.56e6, "S2R+ cell number, rep 1": 1.17e6, "S2R+ cell number, rep 2": 1.29e6, "Call": "inactive"}
{"gene": "Muc30E", "reagent": 1, "Kc cell number, rep 1": 1.25e6, "Kc cell number, rep 2": 1.37e6, "S2R+ cell number, rep 1": 1.04e6, "S2R+ cell number, rep 2": 1.24e6, "Call": "inactive"}
{"gene": "CG10171", "reagent": 1, "Kc cell number, rep 1": 1.28e6, "Kc cell number, rep 2": 1.41e6, "S2R+ cell number, rep 1": 1.39e6, "S2R+ cell number, rep 2": 1.05e6, "Call": "inactive"}
{"gene": "CG15814", "reagent": 1, "Kc cell number, rep 1": 1.71e6, "Kc cell number, rep 2": 1.78e6, "S2R+ cell number, rep 1": 1.03e6, "S2R+ cell number, rep 2": 1.17e6, "Call": "inactive"}

Already shown: an excerpt of the list.
{"gene": "DIP-zeta", "reagent": 1, "Kc cell number, rep 1": 1.58e6, "Kc cell number, rep 2": 1.63e6, "S2R+ cell number, rep 1": 1.16e6, "S2R+ cell number, rep 2": 1.31e6, "Call": "inactive"}
{"gene": "DIP-zeta", "reagent": 2, "Kc cell number, rep 1": 1.52e6, "Kc cell number, rep 2": 1.57e6, "S2R+ cell number, rep 1": 1.20e6, "S2R+ cell number, rep 2": 1.28e6, "Call": "inactive"}
{"gene": "DIP-zeta", "reagent": 3, "Kc cell number, rep 1": 1.46e6, "Kc cell number, rep 2": 1.56e6, "S2R+ cell number, rep 1": 1.17e6, "S2R+ cell number, rep 2": 1.29e6, "Call": "inactive"}
{"gene": "Muc30E", "reagent": 1, "Kc cell number, rep 1": 1.25e6, "Kc cell number, rep 2": 1.37e6, "S2R+ cell number, rep 1": 1.04e6, "S2R+ cell number, rep 2": 1.24e6, "Call": "inactive"}
